Laboratory results published in paper PMC7956269.
Results are given in words; binding and its absence hold for the method and conditions named. In cells and extracts the contact can be indirect. These calls come from enrichment with a bait or labelling near it, and not all partners need be listed.

biological target: Biotin-FOXC1 (mouse) (UniProt Q61572); assay: affinity purification with mass spectrometry; streptavidin-agarose precipitation of biotinylated FOXC1 from nuclear extract of stable HEK293T cells (293T-Biotin-FOXC1); IP350 buffer (350 mM NaCl, 20 mM Tris-HCl pH 7.5, 0.5% NP40, 1 mM EDTA, 10% glycerin); SDS-PAGE, LC-ESI-MS/MS; proteins of the 293T-Biotin control deducted

| Binder | binding |
| --- | --- |
| S100a8 (protein, UniProt P05109 1-93) MLTELEKALNSIIDVYHKYSLIKGNFHAVYRDDLKKLLETECPQYIRKKGADVWFKELDINTDGAVNFQEFLILVIKMGVAAHKKSHEESHKE | binds |
| Mcm3 (protein, UniProt P25205 1-808) MAGTVVLDDVELREAQRDYLDFLDDEEDQGIYQSKVRELISDNQYRLIVNVNDLRRKNEKRANRLLNNAFEELVAFQRALKDFVASIDATYAKQYEEFYVGLEGSFGSKHVSPRTLTSCFLSCVVCVEGIVTKCSLVRPKVVRSVHYCPATKKTIERRYSDLTTLVAFPSSSVYPTKDEENNPLETEYGLSVYKDHQTITIQEMPEKAPAGQLPRSVDVILDDDLVDKAKPGDRVQVVGTYRCLPGKKGGYTSGTFRTVLIACNVKQMSKDAQPSFSAEDIAKIKKFSKTRSKDIFDQLAKSLAPSIHGHDYVKKAILCLLLGGVERDLENGSHIRGDINILLIGDPSVAKSQLLRYVLCTAPRAIPTTGRGSSGVGLTAAVTTDQETGERRLEAGAMVLADRGVVCIDEFDKMSDMDRTAIHEVMEQGRVTIAKAGIHARLNARCSVLAAANPVYGRYDQYKTPMENIGLQDSLLSRFDLLFIMLDQMDPEQDREISDHVLRMHRYRAPGEQDGDAMPLGSAVDILATDDPNFSQEDQQDTQIYEKHDNLLHGTKKKKEKMVSAAFMKKYIHVAKIIKPVLTQESATYIAEEYSRLRSQDSMSSDTARTSPVTARTLETLIRLATAHAKARMSKTVDLQDAEEAVELVQYAYFKKVLEKEKKRKKRSEDESETEDEEEKSQEDQEQKRKRRKTRQPDAKDGDSYDPYDFSDTEEEMPQVHTPKTADSQETKESQKVELSESRLKAFKVALLDVFREAHAQSIGMNRLTESINRDSEEPFSSVEIQAALSKMQDDNQVMVSEGIIFLI | binds |
| Gtf2h2 (protein, UniProt Q13888 1-395) MDEEPERTKRWEGGYERTWEILKEDESGSLKATIEDILFKAKRKRVFEHHGQVRLGMMRHLYVVVDGSRTMEDQDLKPNRLTCTLKLLEYFVEEYFDQNPISQIGIIVTKSKRAEKLTELSGNPRKHITSLKKAVDMTCHGEPSLYNSLSIAMQTLKHMPGHTSREVLIIFSSLTTCDPSNIYDLIKTLKAAKIRVSVIGLSAEVRVCTVLARETGGTYHVILDESHYKELLTHHVSPPPASSSSECSLIRMGFPQHTIASLSDQDAKPSFSMAHLDGNTEPGLTLGGYFCPQCRAKYCELPVECKICGLTLVSAPHLARSYHHLFPLDAFQEIPLEEYNGERFCYGCQGELKDQHVYVCAVCQNVFCVDCDVFVHDSLHCCPGCIHKIPAPSGV | binds |
| Ddx1 (protein, UniProt Q92499 1-740) MAAFSEMGVMPEIAQAVEEMDWLLPTDIQAESIPLILGGGDVLMAAETGSGKTGAFSIPVIQIVYETLKDQQEGKKGKTTIKTGASVLNKWQMNPYDRGSAFAIGSDGLCCQSREVKEWHGCRATKGLMKGKHYYEVSCHDQGLCRVGWSTMQASLDLGTDKFGFGFGGTGKKSHNKQFDNYGEEFTMHDTIGCYLDIDKGHVKFSKNGKDLGLAFEIPPHMKNQALFPACVLKNAELKFNFGEEEFKFPPKDGFVALSKAPDGYIVKSQHSGNAQVTQTKFLPNAPKALIVEPSRELAEQTLNNIKQFKKYIDNPKLRELLIIGGVAARDQLSVLENGVDIVVGTPGRLDDLVSTGKLNLSQVRFLVLDEADGLLSQGYSDFINRMHNQIPQVTSDGKRLQVIVCSATLHSFDVKKLSEKIMHFPTWVDLKGEDSVPDTVHHVVVPVNPKTDRLWERLGKSHIRTDDVHAKDNTRPGANSPEMWSEAIKILKGEYAVRAIKEHKMDQAIIFCRTKIDCDNLEQYFIQQGGGPDKKGHQFSCVCLHGDRKPHERKQNLERFKKGDVRFLICTDVAARGIDIHGVPYVINVTLPDEKQNYVHRIGRVGRAERMGLAISLVATEKEKVWYHVCSSRGKGCYNTRLKEDGGCTIWYNEMQLLSEIEEHLNCTISQVEPDIKVPVDEFDGKVTYGQKRAAGGGSYKGHVDILAPTVQELAALEKEAQTSFLHLGYLPNQLFRTF | binds |

Next, values leading:

| binding | Binder |
| --- | --- |
| binds | Swt1 (protein, UniProt Q5T5J6 1-900) MSSKESCGKKETSQRKDTTTSSPNFGEKDKKERKTPASSTSSSSIRSVSSEKRKLKSDHTDVLYYNIKRRQGLKRLSVEIDTLRRRPKIGSSSQRPIKLKEASYSNDNQIILQSPSSNGTKKDIHKCVDFKPKDIKLTNAGSKLDHGIKSLSSPKIASDVKPKAEGQASENKWSHLLVQREKMKELKKGRNSKFRDNSEKCVLEKWKRNQFSQDYNSNKIIKEPLGSRRQKISFKIPIKSRDTLQKLVEENVFNIDSNNSKTKQEEREYLESSQVSLNVTRQKTEHLLSDFTYKRTVHEWKRKHHYDHQESNDSHSRENLTQSFEAPCCSVSSESIQDADQEMQIVEELHAARVGKSVDLPGELMSMEIDLEDDVHSSSANNTSDRKLLIVIDTNILMNHLKFVRILKTTEVPGFDKLVLIIPWVVMQELDRMKEGKLLKRAQHKAIPAVHFINDSLKNQDRKLWGQSIQLASQKHYGLSDENNDDRVLKCCLQHQELFPCSFVILCTDDRNLRNKGLISGVKSLSKEELSAELLHLSLNTDVCHQPCIPKQQLKAETTPLKESYKEESTNSGLSILLESIVSDLEKSLGTGLSSILETEMKIAFGNLWMEILYLKPPWTLLHLLQCFKKHWLAVFGLVMEKNLLLTIESLYKNLRKANKAVDFTTVKFLLQDSRSLLHAFSTRSNYDGILPQTFAQVNNLLQTFAEVKTKLKPNSSENTVTKKQEGTSLKNSHNQEITVFSSSHLPQPSRHQEIWSILESVWITIYQNSTDVFQRLGSNSALTTSNIASFEEAFICLQKLMAAVRDILEGIQRILAPNSNYQDVETLYNFLIKYEVNKNVKFTAQEIYDCVSQTEYREKLTIGCRQLVEMEYTMQQCNASVYMEAKNRGWCEDMLNYRI |
| binds | Zc3hav1l (protein, UniProt Q96H79 1-300) MAEPTVCSFLTKVLCAHGGRMFLKDLRGHVELSEARLRDVLQRAGPERFLLQEVETQEGLGDAEAEAAAGAVGGGGTSAWRVVAVSSVRLCARYQRGECQACDQLHFCRRHMLGKCPNRDCWSTCTLSHDIHTPVNMQVLKSHGLFGLNENQLRILLLQNDPCLLPEVCLLYNKGEALYGYCNLKDKCNKFHVCKSFVKGECKLQTCKRSHQLIHAASLKLLQDQGLNIPSVVNFQIISTYKHMKLHKMLENTDNSSPSTEHSQGLEKQGVHAAGAAEAGPLASVPAQSAKKPCPVSCEK |
| binds | Trmt10c (protein, UniProt Q7L0Y3 40-403) MSSKIPAVTYPKNESTPPSEELELDKWKTTMKSSVQEECVSTISSSKDEDPLAATREFIEMWRLLGREVPEHITEEELKTLMECVSNTAKKKYLKYLYTKEKVKKARQIKKEMKAAAREEAKNIKLLETTEEDKQKNFLFLRLWDRNMDIAMGWKGAQAMQFGQPLVFDMAYENYMKRKELQNTVSQLLESEGWNRRNVDPFHIYFCNLKIDGALHRELVKRYQEKWDKLLLTSTEKSHVDLFPKDSIIYLTADSPNVMTTFRHDKVYVIGSFVDKSMQPGTSLAKAKRLNLATECLPLDKYLQWEIGNKNLTLDQMIRILLCLKNNGNWQEALQFVPKRKHTGFLEISQHSQEFINRLKKAKT |
| binds | Rrp1 (protein, UniProt P56182 1-461) MVSRVQLPPEIQLAQRLAGNEQVTRDRAVRKLRKYIVARTQRAAGGFTHDELLKVWKGLFYCMWMQDKPLLQEELGRTISQLVHAFQTTEAQHLFLQAFWQTMNREWTGIDRLRLDKFYMLMRMVLNESLKVLKMQGWEERQIEELLELLMTEILHPSSQAPNGVKSHFIEIFLEELTKVGAEELTADQNLKFIDPFCRIAARTKDSLVLNNITRGIFETIVEQAPLAIEDLLNELDTQDEEVASDSDESSEGGERGDALSQKRSEKPPAGSICRAEPEAGEEQAGDDRDSGGPVLQFDYEAVANRLFEMASRQSTPSQNRKRLYKVIRKLQDLAGGIFPEDEIPEKACRRLLEGRRQKKTKKQKRLLRLQQERGKGEKEPPSPGMERKRSRRRGVGADPEARAEAGEQPGTAERALLRDQPRGRGQRGARQRRRTPRPLTSARAKAANVQEPEKKKKRRE |
| binds | Sbno1 (protein, UniProt A3KN83 1-1393) MVEPGQDLLLAALSESGISPNDLFDIDGGDAGLATPMPTPSVQQSVPLSALELGLETEAAVPVKQEPETVPTPALLNVRQQPPSTTTFVLNQINHLPPLGSTIVMTKTPPVTTNRQTITLTKFIQTTASTRPSVSAPTVRNAMTSAPSKDQVQLKDLLKNNSLNELMKLKPPANIAQPVATAATDVSNGTVKKESSNKEGARMWINDMKMRSFSPTMKVPVVKEDDEPEEEDEEEMGHAETYAEYMPIKLKIGLRHPDAVVETSSLSSVTPPDVWYKTSISEETIDNGWLSALQLEAITYAAQQHETFLPNGDRAGFLIGDGAGVGKGRTIAGIIYENYLLSRKRALWFSVSNDLKYDAERDLRDIGAKNILVHSLNKFKYGKISSKHNGSVKKGVIFATYSSLIGESQSGGKYKTRLKQLLHWCGDDFDGVIVFDECHKAKNLCPVGSSKPTKTGLAVLELQNKLPKARVVYASATGASEPRNMAYMNRLGIWGEGTPFREFSDFIQAVERRGVGAMEIVAMDMKLRGMYIARQLSFTGVTFKIEEVLLSQSYVKMYNKAVKLWVIARERFQQAADLIDAEQRMKKSMWGQFWSAHQRFFKYLCIASKVKRVVQLAREEIKNGKCVVIGLQSTGEARTLEALEEGGGELNDFVSTAKGVLQSLIEKHFPAPDRKKLYSLLGIDLTAPSNNSSPRDSPCKENKIKKRKGEEITREAKKARKVGGLTGSSSDDSGSESDASDNEESDYESSKNMSSGDDDDFNPFLDESNEDDENDPWLIRKDHKKNKEKKKKKSIDPDSIQSALLASGLGSKRPSFSSTPVISPAPNSTPANSNTNSNSSLITSQDAVERAQQMKKDLLDKLEKLAEDLPPNTLDELIDELGGPENVAEMTGRKGRVVSNDDGSISYESRSELDVPVEILNITEKQRFMDGDKNIAIISEAASSGISLQADRRAKNQRRRVHMTLELPWSADRAIQQFGRTHRSNQVTAPEYVFLISELAGEQRFASIVAKRLESLGALTHGDRRATESRDLSRFNFDNKYGRNALEIVMKSIVNLDSPMVSPPPDYPGEFFKDVRQGLIGVGLINVEDRSGILTLDKDYNNIGKFLNRILGMEVHQQNALFQYFADTLTAVVQNAKKNGRYDMGILDLGSGDEKVRKSDVKKFLTPGYSTSGHVELYTISVERGMSWEEATKIWAELTGPDDGFYLSLQIRNNKKTAILVKEVNPKKKLFLVYRPNTGKQLKLEIYADLKKKYKKVVSDDALMHWLDQYNSSADTCTHAYWRGNCKKASLGLVCEIGLRCRTYYVLCGSVLSVWTKVEGVLASVSGTNVKMQIVRLRTEDGQRIVGLIIPANCVSPLVNLLSTSDQSQQLAVQQKQLWQQHHPQSITNLSNA |
